Measurements reported in the supplement of paper PMC6411743.
± gives the standard deviation of the averaged measurements. This is a selection; strong and weak results do not stand in their true shares. Small differences around the control level are noise.

By UniProt entry, the sequences of proteins in these tests, tags left out. Where a name states a change or a piece, a line headed by the entry shows the natural chain unless it says otherwise.
UniProt Q92538, whole entry: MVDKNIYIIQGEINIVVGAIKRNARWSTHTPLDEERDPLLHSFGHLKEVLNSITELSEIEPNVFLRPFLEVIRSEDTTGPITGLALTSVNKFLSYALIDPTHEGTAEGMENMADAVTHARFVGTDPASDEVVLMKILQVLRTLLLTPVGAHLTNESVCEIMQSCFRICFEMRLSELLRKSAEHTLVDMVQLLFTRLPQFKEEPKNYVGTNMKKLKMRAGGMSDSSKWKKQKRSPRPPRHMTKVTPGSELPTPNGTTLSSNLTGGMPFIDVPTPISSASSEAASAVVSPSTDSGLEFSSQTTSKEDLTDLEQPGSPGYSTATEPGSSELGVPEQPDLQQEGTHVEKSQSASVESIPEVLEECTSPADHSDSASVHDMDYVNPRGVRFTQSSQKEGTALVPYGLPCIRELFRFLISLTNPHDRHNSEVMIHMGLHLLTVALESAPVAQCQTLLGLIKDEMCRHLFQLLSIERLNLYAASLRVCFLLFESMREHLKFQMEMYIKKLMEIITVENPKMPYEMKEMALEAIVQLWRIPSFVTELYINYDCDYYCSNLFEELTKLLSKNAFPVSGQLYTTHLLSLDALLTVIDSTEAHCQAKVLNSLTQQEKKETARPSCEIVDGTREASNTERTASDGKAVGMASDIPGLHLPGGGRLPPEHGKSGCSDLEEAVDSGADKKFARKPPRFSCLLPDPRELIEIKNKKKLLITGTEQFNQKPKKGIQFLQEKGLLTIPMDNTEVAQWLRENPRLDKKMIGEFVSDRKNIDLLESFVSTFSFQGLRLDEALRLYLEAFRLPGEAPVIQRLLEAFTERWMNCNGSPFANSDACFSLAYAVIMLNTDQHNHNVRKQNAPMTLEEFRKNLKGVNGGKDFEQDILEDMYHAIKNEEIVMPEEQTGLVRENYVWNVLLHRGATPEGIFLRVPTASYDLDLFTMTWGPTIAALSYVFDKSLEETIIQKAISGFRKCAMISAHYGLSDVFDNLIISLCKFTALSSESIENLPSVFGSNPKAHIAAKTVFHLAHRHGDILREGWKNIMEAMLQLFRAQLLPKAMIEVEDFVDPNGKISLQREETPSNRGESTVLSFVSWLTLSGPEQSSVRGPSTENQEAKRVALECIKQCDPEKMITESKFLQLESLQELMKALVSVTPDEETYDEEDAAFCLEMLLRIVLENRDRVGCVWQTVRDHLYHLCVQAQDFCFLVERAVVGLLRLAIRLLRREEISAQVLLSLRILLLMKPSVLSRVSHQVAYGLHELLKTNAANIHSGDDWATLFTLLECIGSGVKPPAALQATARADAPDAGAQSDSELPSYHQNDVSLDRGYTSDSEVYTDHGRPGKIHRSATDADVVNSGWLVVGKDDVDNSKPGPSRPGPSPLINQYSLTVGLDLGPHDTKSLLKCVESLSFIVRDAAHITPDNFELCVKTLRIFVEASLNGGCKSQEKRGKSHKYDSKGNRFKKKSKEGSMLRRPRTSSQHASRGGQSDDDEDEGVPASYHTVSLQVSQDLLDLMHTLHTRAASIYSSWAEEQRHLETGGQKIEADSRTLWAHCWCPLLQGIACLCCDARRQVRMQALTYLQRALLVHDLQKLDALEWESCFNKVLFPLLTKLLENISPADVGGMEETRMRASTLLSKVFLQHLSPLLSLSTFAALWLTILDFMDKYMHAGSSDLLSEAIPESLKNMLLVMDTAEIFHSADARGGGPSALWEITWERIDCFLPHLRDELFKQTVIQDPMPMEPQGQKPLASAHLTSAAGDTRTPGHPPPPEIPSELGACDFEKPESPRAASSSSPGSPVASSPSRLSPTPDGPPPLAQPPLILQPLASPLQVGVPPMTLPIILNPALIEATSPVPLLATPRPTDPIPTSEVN
UniProt Q8WUX2: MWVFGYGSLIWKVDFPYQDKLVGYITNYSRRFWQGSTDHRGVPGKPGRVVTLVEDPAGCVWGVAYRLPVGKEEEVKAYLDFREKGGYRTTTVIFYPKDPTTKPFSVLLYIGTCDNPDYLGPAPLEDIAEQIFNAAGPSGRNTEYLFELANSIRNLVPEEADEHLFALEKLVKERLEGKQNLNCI
UniProt Q8TCD1: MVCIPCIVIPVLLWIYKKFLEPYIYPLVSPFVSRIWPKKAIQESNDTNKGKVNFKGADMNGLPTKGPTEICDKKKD
UniProt Q92625: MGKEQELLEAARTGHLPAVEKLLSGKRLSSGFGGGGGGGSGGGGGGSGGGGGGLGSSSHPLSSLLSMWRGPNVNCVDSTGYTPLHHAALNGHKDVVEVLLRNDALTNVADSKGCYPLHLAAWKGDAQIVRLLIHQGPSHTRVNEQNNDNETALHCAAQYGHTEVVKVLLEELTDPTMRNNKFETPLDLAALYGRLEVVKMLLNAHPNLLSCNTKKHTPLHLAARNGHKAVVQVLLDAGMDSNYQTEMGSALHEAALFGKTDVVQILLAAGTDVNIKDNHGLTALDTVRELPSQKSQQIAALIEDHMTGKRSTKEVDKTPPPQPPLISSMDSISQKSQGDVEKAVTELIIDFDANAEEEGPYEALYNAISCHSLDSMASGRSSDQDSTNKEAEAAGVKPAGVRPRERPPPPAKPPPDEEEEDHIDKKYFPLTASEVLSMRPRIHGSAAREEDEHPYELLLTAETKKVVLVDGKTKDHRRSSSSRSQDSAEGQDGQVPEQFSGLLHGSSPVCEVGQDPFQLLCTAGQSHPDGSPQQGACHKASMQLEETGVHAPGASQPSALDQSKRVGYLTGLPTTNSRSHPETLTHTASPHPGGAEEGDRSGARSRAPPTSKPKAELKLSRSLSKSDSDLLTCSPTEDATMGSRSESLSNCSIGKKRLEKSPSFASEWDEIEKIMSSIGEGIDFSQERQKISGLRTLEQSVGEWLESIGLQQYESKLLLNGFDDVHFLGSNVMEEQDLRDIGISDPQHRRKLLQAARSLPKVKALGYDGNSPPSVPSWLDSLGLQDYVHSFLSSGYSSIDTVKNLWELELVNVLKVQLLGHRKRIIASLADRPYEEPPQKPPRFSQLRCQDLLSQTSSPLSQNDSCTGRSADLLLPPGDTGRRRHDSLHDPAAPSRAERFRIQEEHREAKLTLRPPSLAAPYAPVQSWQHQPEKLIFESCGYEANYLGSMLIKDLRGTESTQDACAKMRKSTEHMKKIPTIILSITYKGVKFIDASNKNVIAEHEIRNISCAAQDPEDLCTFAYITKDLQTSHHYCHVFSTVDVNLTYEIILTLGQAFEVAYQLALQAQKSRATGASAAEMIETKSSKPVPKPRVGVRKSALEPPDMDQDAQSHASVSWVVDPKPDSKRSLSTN
UniProt Q92620: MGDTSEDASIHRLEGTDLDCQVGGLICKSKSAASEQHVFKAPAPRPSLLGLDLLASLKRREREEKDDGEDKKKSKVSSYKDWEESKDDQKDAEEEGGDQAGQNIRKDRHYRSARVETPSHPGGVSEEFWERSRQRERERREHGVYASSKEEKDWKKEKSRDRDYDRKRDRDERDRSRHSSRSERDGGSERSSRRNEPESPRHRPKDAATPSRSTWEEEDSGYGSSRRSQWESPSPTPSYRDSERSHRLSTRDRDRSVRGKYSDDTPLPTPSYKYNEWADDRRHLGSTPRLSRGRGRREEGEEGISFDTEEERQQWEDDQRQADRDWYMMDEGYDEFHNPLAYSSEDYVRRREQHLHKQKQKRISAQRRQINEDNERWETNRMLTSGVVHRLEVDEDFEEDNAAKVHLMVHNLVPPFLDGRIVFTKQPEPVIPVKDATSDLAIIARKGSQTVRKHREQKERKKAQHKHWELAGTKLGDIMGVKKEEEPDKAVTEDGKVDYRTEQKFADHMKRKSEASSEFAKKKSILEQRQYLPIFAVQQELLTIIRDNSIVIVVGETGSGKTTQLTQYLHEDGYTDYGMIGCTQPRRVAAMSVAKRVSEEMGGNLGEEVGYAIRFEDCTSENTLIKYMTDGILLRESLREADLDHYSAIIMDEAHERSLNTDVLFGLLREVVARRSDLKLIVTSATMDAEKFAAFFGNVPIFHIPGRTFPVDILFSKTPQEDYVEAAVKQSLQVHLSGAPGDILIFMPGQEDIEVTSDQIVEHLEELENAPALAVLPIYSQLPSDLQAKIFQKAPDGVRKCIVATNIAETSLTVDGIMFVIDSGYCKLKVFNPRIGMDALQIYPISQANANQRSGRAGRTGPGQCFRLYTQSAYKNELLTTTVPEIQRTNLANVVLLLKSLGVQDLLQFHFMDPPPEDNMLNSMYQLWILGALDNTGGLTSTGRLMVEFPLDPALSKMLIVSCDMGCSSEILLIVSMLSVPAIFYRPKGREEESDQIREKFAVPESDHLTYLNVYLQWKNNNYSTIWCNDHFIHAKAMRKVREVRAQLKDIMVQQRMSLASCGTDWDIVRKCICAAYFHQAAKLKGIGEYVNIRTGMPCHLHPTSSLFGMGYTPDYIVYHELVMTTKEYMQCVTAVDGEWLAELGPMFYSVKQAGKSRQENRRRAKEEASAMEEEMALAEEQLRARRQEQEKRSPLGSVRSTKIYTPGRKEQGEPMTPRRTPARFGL
UniProt Q92854, whole entry: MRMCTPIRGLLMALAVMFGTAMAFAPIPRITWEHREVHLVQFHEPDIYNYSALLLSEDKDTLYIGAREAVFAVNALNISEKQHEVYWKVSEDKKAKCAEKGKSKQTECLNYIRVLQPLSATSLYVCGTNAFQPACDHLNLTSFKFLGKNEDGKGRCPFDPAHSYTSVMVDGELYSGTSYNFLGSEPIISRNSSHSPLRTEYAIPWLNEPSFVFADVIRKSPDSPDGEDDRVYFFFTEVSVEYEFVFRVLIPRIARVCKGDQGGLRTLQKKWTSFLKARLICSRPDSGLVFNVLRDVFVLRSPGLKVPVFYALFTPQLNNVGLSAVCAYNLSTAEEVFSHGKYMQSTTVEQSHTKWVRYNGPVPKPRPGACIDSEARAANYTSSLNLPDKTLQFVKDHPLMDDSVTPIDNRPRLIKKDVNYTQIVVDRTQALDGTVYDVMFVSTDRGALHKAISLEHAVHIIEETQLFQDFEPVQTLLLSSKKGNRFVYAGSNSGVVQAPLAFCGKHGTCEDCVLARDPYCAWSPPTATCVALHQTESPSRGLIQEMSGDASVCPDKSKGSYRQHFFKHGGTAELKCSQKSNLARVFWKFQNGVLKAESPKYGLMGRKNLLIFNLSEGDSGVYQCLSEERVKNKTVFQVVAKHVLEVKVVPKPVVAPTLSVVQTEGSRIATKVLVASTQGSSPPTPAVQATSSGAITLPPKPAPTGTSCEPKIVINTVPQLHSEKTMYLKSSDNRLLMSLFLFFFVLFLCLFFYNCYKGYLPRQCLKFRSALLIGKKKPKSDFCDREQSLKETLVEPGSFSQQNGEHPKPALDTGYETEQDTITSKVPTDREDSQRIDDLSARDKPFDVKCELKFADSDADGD
UniProt Q96BJ3: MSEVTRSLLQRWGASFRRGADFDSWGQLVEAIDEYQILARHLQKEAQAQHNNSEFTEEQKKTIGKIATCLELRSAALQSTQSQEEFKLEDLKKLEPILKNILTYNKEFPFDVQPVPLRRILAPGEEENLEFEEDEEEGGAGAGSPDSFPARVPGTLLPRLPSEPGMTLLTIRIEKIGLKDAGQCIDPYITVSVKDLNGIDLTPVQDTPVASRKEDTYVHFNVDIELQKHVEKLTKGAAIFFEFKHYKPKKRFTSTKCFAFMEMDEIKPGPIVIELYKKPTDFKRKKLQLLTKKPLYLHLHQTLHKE
UniProt Q96AX2: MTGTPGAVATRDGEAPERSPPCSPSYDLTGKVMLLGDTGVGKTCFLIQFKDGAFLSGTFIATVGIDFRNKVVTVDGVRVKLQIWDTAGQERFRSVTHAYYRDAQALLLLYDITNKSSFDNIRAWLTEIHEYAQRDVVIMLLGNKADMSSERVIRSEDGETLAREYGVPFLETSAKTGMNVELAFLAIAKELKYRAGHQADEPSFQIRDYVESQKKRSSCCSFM
UniProt Q96AA3: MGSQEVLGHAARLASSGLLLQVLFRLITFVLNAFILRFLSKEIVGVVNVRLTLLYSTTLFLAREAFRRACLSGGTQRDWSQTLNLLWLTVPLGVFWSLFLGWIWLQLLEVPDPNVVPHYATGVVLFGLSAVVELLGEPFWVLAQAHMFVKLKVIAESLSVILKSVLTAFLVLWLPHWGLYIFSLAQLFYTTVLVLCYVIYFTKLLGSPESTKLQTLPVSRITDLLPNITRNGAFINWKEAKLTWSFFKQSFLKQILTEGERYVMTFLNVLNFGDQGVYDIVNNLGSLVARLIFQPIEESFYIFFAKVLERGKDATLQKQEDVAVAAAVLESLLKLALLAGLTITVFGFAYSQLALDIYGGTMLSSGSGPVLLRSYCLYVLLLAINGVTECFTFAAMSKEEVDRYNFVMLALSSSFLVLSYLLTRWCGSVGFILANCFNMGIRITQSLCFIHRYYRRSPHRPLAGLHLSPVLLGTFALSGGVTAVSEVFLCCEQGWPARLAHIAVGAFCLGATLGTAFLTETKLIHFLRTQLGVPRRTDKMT
UniProt Q96B96: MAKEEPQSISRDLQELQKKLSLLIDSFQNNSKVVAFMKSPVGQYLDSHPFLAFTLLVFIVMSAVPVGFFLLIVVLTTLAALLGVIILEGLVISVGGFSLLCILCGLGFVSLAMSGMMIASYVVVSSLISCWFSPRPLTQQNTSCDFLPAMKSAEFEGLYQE

Compound: Nc1ncnc2c1ncn2[C@@H]1O[C@H](COP(=O)(O)OP(=O)(O)OP(=O)(O)O)[C@@H](O)[C@H]1O [adenosine triphosphate]
Assay: NP40-soluble protein abundance relative to vehicle (solubility fold change) (ratio); higher = more soluble protein in presence of ATP
Conditions: concentration: 0.1mM
In short: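 Jurkat crude lysate (Dounce-homogenised) was treated with eight concentrations from 0.1 to 10 mM for 10 min at room temperature, then 3 min at 37 °C. It was solubilised with 0.8% NP40 and benzonase (60 min, 4 °C) and ultracentrifuged, and the supernatant was TMT-labelled for LC-MS/MS. Intensities were vsn-normalised, and the value is the fold change against the NP40-processed vehicle per replicate, from three independent experiments.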

Target	NP40-soluble protein abundance
UniProt Q8TF46 and related entries	0.951 ± 0.046
NSMCE1 (UniProt Q8WV22)	1.03 ± 0.082
GTF3C6 (UniProt Q969F1)	0.989 ± 0.031
SPPL2B (UniProt Q8TCT7)	0.961 ± 0.077
TOPBP1 (UniProt Q92547)	1.06 ± 0.029
UniProt Q92538 and related entries	1.02 ± 0.036
UniProt Q96B01 and related entries	0.95 ± 0.064
DNAJB14 (UniProt Q8TBM8)	0.954 ± 0.04
CHAC2 (UniProt Q8WUX2)	0.987 ± 0.048
PPP1R13L (UniProt Q8WUF5)	1.02 ± 0.077
C18orf32 (UniProt Q8TCD1)	0.909 ± 0.12
ANKS1A (UniProt Q92625)	0.956 ± 0.013
FAM172A (UniProt Q8WUF8)	1.04 ± 0.041
UniProt Q96BD8	0.921 ± 0.056
ZUP1 (UniProt Q96AP4)	1.03 ± 0.029
DHX38 (UniProt Q92620)	1.016 ± 0.0024
SEMA4D (UniProt Q92854)	0.939 ± 0.035
AIDA (UniProt Q96BJ3)	1.01 ± 0.048
PSPC1 (UniProt Q8WXF1)	1.02 ± 0.036

Target	NP40-soluble protein abundance
UniProt Q8WZA9	0.96 ± 0.028
UniProt Q96AX2 and related entries	1.06 ± 0.1
UniProt Q92623	0.904 ± 0.14
TMEM263 (UniProt Q8WUH6)	0.919 ± 0.073
UniProt Q8WV93	0.929 ± 0.036
UniProt Q8TDZ2 and related entries	1.02 ± 0.064
RFT1 (UniProt Q96AA3)	0.956 ± 0.019
UniProt Q96AE7-2|Q96AE7	0.973 ± 0.1
TGFBRAP1 (UniProt Q8WUH2)	1.05 ± 0.047
NUP210 (UniProt Q8TEM1)	1.01 ± 0.037
UniProt Q969P0 and related entries	1 ± 0.072
UniProt Q96B96 and related entries	0.932 ± 0.031
ISG20 (UniProt Q96AZ6)	1.18 ± 0.18
NEK9 (UniProt Q8TD19)	1.02 ± 0.048
UniProt Q8TCY9	1.05 ± 0.14
DTX3L (UniProt Q8TDB6)	1.05 ± 0.029
UniProt Q92989 and related entries	1.03 ± 0.065
PIBF1 (UniProt Q8WXW3)	1.12 ± 0.12

Same assay, conditions: concentration: 0.5mM

Target	NP40-soluble protein abundance
UniProt Q8TF46 and related entries	1.01 ± 0.12
NSMCE1 (UniProt Q8WV22)	0.984 ± 0.03
GTF3C6 (UniProt Q969F1)	1 ± 0.031
SPPL2B (UniProt Q8TCT7)	0.886 ± 0.1
TOPBP1 (UniProt Q92547)	1.08 ± 0.049
UniProt Q92538 and related entries	1.008 ± 0.0092
UniProt Q96B01 and related entries	0.991 ± 0.075
DNAJB14 (UniProt Q8TBM8)	0.93 ± 0.05
CHAC2 (UniProt Q8WUX2)	0.95 ± 0.091
PPP1R13L (UniProt Q8WUF5)	1.04 ± 0.042
C18orf32 (UniProt Q8TCD1)	0.831 ± 0.25
ANKS1A (UniProt Q92625)	0.929 ± 0.023
FAM172A (UniProt Q8WUF8)	1.07 ± 0.073
UniProt Q96BD8	0.911 ± 0.078
ZUP1 (UniProt Q96AP4)	0.976 ± 0.066
DHX38 (UniProt Q92620)	1.1 ± 0.052
SEMA4D (UniProt Q92854)	0.945 ± 0.029
AIDA (UniProt Q96BJ3)	1.02 ± 0.049
PSPC1 (UniProt Q8WXF1)	1.03 ± 0.049

Target	NP40-soluble protein abundance
UniProt Q8WZA9	0.927 ± 0.023
UniProt Q96AX2 and related entries	1.04 ± 0.11
UniProt Q92623	0.891 ± 0.14
TMEM263 (UniProt Q8WUH6)	0.916 ± 0.095
UniProt Q8WV93	0.908 ± 0.053
UniProt Q8TDZ2 and related entries	0.982 ± 0.027
RFT1 (UniProt Q96AA3)	0.963 ± 0.048
UniProt Q96AE7-2|Q96AE7	1.02 ± 0.078
TGFBRAP1 (UniProt Q8WUH2)	1.03 ± 0.041
NUP210 (UniProt Q8TEM1)	1.04 ± 0.024
UniProt Q969P0 and related entries	1.02 ± 0.035
UniProt Q96B96 and related entries	0.887 ± 0.062
ISG20 (UniProt Q96AZ6)	1.16 ± 0.11
NEK9 (UniProt Q8TD19)	1 ± 0.015
UniProt Q8TCY9	0.981 ± 0.15
DTX3L (UniProt Q8TDB6)	1.07 ± 0.036
UniProt Q92989 and related entries	1.07 ± 0.023
PIBF1 (UniProt Q8WXW3)	1.004 ± 0.0096
